The record followed here is publication doi:10.1101/2024.09.26.24313895.

By UniProt entry, the sequences of proteins in these tests, tags left out. Residues count along the entry.
UniProt Q5JSZ5, residues 1-600: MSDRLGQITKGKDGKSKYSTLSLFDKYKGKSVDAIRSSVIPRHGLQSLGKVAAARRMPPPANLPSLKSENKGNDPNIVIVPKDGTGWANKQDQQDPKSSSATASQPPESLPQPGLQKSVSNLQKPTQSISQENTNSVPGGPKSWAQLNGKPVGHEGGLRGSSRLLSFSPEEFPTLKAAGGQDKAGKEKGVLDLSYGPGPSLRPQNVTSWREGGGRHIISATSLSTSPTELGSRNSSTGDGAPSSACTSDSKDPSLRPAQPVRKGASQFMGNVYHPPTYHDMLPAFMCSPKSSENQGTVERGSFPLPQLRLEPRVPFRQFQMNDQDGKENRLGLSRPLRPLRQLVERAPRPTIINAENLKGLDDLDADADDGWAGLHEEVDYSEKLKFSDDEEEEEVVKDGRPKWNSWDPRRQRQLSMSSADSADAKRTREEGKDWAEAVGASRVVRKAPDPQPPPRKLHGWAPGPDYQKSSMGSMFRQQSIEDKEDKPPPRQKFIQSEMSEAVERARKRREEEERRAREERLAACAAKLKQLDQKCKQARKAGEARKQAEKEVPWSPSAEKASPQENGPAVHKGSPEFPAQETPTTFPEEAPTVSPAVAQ
eIF4G2 N-terminal fragment (1-323 aa) (P78344, residues 1-323): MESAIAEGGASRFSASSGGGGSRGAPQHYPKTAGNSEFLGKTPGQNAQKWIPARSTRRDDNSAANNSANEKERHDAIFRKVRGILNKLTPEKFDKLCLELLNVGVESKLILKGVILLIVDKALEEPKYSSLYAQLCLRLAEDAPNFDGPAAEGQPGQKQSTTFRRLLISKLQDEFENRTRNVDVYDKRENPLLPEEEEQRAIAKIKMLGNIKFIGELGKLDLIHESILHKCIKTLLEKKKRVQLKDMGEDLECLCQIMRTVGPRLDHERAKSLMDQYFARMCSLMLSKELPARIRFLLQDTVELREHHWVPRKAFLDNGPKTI
eIF4G2 C-terminal fragment (545-890 aa) (P78344, residues 545-890): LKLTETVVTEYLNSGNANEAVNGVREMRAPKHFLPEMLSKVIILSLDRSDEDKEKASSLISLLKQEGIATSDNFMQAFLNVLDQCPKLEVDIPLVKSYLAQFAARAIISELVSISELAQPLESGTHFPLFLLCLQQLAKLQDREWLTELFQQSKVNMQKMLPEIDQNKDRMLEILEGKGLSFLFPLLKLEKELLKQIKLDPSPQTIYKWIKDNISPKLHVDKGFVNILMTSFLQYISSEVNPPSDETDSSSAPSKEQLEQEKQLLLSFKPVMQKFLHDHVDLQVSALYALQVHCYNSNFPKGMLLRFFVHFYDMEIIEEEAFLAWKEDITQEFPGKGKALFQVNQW

The assay has as its target GST-PRRC2B 1-600 (human) (UniProt Q5JSZ5). Kind of assay: pull-down.

These are yes or no findings as the source states them, for the method shown. Some entries that bind do so weakly or less than the wild type.

Turning to “eIF4G2 N-terminal fragment (1-323 aa) (from UniProt P78344 1-323) (domain or fragment)”, the binding entry is reported as “no binding”. As to “eIF4G2 C-terminal fragment (545-890 aa) (from UniProt P78344 545-890) (domain or fragment)”, the binding entry is recorded as “binds”.
